Laboratory results published in PubChem BioAssay AID493027 (The Scripps Research Institute Molecular Screening Center, 2011).
The campaign covered roughly 2,000 compounds. About 45 (2%) were called active.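 How the source made its calls: active means inhibition above the screen-wide mean inhibition plus 3 SD (cut at about 44% in these data); inactive means the rest.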 Some of the results follow. Where a SMILES comes first, the peptide text is derived from it. The star is where a group is joined. Boc = CC(C)(C)OC(=O)*

The chains behind the UniProt entries cited, without tags or fusion partners. Where a name states a change or a piece, a line headed by the entry shows the natural chain unless it says otherwise.
UniProt O60240: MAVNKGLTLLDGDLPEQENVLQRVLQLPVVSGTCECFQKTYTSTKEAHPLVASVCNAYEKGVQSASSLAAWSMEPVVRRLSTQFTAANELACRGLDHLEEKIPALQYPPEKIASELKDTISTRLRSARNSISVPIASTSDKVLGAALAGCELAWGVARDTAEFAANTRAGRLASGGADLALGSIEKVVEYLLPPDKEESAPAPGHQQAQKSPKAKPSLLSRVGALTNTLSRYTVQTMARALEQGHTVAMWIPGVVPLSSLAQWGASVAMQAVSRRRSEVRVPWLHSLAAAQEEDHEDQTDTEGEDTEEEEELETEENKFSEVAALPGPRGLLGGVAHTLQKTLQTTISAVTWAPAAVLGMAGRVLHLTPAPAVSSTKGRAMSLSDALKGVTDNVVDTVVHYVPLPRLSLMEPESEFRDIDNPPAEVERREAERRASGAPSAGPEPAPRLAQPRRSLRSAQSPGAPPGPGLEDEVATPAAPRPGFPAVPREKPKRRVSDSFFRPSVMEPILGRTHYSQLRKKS
UniProt Q8WTS1: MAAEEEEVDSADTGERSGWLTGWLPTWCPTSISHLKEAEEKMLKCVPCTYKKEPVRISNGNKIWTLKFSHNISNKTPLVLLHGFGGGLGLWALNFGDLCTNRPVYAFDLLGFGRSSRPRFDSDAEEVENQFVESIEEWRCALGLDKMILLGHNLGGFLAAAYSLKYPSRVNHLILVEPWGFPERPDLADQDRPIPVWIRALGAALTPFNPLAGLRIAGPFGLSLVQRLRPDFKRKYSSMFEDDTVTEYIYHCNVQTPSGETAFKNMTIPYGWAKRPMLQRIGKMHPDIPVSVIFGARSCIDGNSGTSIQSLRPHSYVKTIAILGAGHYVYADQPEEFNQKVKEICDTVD

target: Perilipin-1 (Homo sapiens) + 1-acylglycerol-3-phosphate O-acyltransferase ABHD5 (Homo sapiens) (UniProt O60240+Q8WTS1); assay: blockers of ABHD5 binding to perilipin-1 – cell lysate, split luciferase complementation, luminescence, NIH validation set, pilot screen (AID 493027);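 further: 0% = DMSO wells with the 100% control not disclosed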; conditions: split G. princeps luciferase complementation, 4 h; at 7.9 µM, stronger effect = higher value

Row | SMILES | inhibition
1 | C/C(CCc1oc2ccc(Cl)cc2c1-c1ccc(C)o1)=N\O | inactive: 26.2%
2 | CC(=O)c1c(N)nc2n(c1=O)CCCCC2 | inactive: -11.6%
3 | CC/C(=C1/C(=O)CC(C)(C)C(C(=O)OC)C1=O)N1CCCC1 (stereo not given) | inactive: -0.15%
4 | CC(=O)C1=C(O)C(=O)N(CC(=O)O)C1c1ccccc1Cl (stereo not given) | inactive: -3.01%
5 | N=C(N)c1ccc(OCCCCCOc2ccc(C(=N)N)cc2)cc1 | inactive: 1.09%
6 | CCN(CC)CCN1C(=O)C(=O)/C(=C(/O)c2c(C)[nH]c(C(=O)OC)c2C)C1c1cccnc1 (stereo not given) | inactive: 0.26%
7 | COc1ccccc1C(=O)Nc1cc2cc(Br)ccc2oc1=O | inactive: -9.88%
8 | CCCCC(=O)O[C@H]1CC[C@H]2[C@@H]3CCc4cc(O)ccc4[C@H]3CC[C@]12C | inactive: -15.8%
9 | Fc1ccc(C(c2ccc(F)cc2)N2CCN(C/C=C/c3ccccc3)CC2)cc1 | inactive: -7.35%
10 | CCOC(=O)C(=O)Nc1ccc(Oc2ccccc2)cc1 | inactive: -8.34%
11 | CCCc1cc(=O)[nH]c(=S)[nH]1 | inactive: -5.68%
12 | COC(=O)CN1C(=S)N(c2ccc(F)cc2)C(=O)C1CC(=O)Nc1ccccc1 (stereo not given) | inactive: 3.26%
13 | COc1ccc(CCN(C)CCCC(C#N)(c2ccc(OC)c(OC)c2)C(C)C)cc1OC (stereo not given) | inactive: -8.8%
14 | Nc1cccc2nc3ccccc3cc12 | inactive: -10.2%
15 | O=C(NC1CC1)C1CCN(C2CCN(C(=O)Cc3ccc(F)cc3)CC2)CC1 | inactive: -12.1%
16 | N/C(=N\OC(=O)c1cccc(Br)c1)c1ccncc1 | inactive: -2.18%
17 | COc1ccc(-c2coc3c(CN4CCOCC4)c(O)ccc3c2=O)cc1 | inactive: -9.05%
18 | CC(=O)N1CCN(c2ccc(NC(=O)/C=C/c3ccccc3)cc2)CC1 | inactive: 5.73%
19 | O=C(Nc1cccc(C(=O)O)c1)/C(=C\c1ccccc1)NC(=O)c1ccccc1 | inactive: -1.42%
20 | C[C@]12CCC(=O)C=C1CC[C@@H]1[C@@H]2[C@@H](O)C[C@@]2(C)[C@H]1CC[C@]2(O)C(=O)CO | inactive: -6.79%
21 | CC(C)N(Cc1nccn1C)C(=O)CC1C(=O)NCCN1Cc1ccccc1C(F)(F)F (stereo not given) | inactive: -11%
22 | CNCCCC1c2ccccc2C=Cc2ccccc21 | inactive: -2.42%
23 | Cc1ccsc1/C=N\NC(=O)c1ccc2c(c1)OCO2 | inactive: -1.88%
24 | O=C(O)CC(O)C(=O)O (stereo not given) | inactive: -5.9%
25 | Cc1cc(=O)oc(C)c1C(=O)NCCC(C)C | inactive: -5.42%

Row | SMILES | inhibition
26 | CC(=O)N1N=C(c2cccs2)CC1c1ccc(C)o1 (stereo not given) | inactive: -8.72%
27 | O=C(Cc1c[nH]c2ccccc12)OCCOC(=O)Cc1c[nH]c2ccccc12 | inactive: 19.4%
28 | Cn1c(=O)c2nc3ccccc3nc2n(C)c1=O | inactive: -8.96%
29 | O=P(O)(O)CP(=O)(O)O | inactive: -4.16%
30 | COc1ccc(/C=N\NC(=O)CCc2c(C)n[nH]c2C)c(OC)c1OC | inactive: -12%
31 | O=C(CCCC(=O)OCC1CCCO1)OCC1CCCO1 (stereo not given) | inactive: -11.4%
32 | CC(C(=O)O)c1ccc(-c2ccccc2)c(F)c1 (stereo not given) | inactive: -2.81%
33 | C=CCOc1ccc(C(=O)CC)cc1OC | inactive: -1.94%
34 | Cn1c(=O)[nH]c2nnc(-c3ccc(Cl)c(Cl)c3)nc2c1=O | inactive: 5.13%
35 | CN(C)C(=O)C(CCN1CCC(O)(c2ccc(Cl)cc2)CC1)(c1ccccc1)c1ccccc1 | inactive: -4.14%
36 | CSCCC(NC(=O)OC(C)(C)C)C(=O)Oc1ccc2c(=O)c(-c3ccc4c(c3)OCCO4)coc2c1 (stereo not given) | active: 67.4%
37 | COc1cc2c(cc1OC)C(c1cc(OC)c(OC)c(OC)c1)NCC2 (stereo not given) | inactive: -1.43%
38 | COc1ccc2[nH]c3c(=O)n(/N=C/[C@H]4C(C)C=C(C)CC4C)c(=O)[nH]c3c2c1 (stereo not given in full) | inactive: 23.9%
39 | Oc1c(Cl)cc(Cl)c(Cl)c1Cc1c(O)c(Cl)cc(Cl)c1Cl | inactive: 0.61%
40 | COc1cccc(-n2c(C)c3c(OC)cccc(=O)c3c2C)c1 | inactive: 12%
41 | CCCCC[C@H](O)/C=C/C1=C(CCCCCCC(=O)O)C(=O)CC1 | inactive: 22.3%
42 | COc1cccc(OC)c1C(=O)NCCSC1CCCCC1 | inactive: 4.52%
43 | CNc1nc(Nc2ccccc2)nc(OCC(F)(F)F)n1 | inactive: -9.06%
44 | COc1ccc(C(=O)/C=C2/c3ccccc3CC(C)(C)N2C)cc1 | inactive: 12%
45 | O=C(CCC(=O)NCCO)NCCO | inactive: 7.42%
46 | Oc1ccc(/C=C/c2cc(O)cc(O)c2)cc1 | inactive: 1.01%
47 | COc1ccc(/C=C/C(=O)Nc2ccccc2C(=O)O)cc1OC | inactive: -6.48%
48 | COC(=O)c1cc(-c2ccc(OC)c(OC)c2)on1 | inactive: -7.32%
49 | CC(=O)N/C(=C/c1ccc2c(c1)OCO2)C(=O)NCCO | inactive: 1.37%
50 | COC(=O)c1[nH]c(=O)c2ccccc2c1O | inactive: 0.41%

Compounds 36–41 from above:
Row | SMILES | inhibition
36 | CSCCC(NC(=O)OC(C)(C)C)C(=O)Oc1ccc2c(=O)c(-c3ccc4c(c3)OCCO4)coc2c1 (stereo not given) | active: 67.4%
37 | COc1cc2c(cc1OC)C(c1cc(OC)c(OC)c(OC)c1)NCC2 (stereo not given) | inactive: -1.43%
38 | COc1ccc2[nH]c3c(=O)n(/N=C/[C@H]4C(C)C=C(C)CC4C)c(=O)[nH]c3c2c1 (stereo not given in full) | inactive: 23.9%
39 | Oc1c(Cl)cc(Cl)c(Cl)c1Cc1c(O)c(Cl)cc(Cl)c1Cl | inactive: 0.61%
40 | COc1cccc(-n2c(C)c3c(OC)cccc(=O)c3c2C)c1 | inactive: 12%
41 | CCCCC[C@H](O)/C=C/C1=C(CCCCCCC(=O)O)C(=O)CC1 | inactive: 22.3%

(more compounds)

Row | SMILES | inhibition
51 | CCc1nc2ccccc2c(NC(=O)CN2CC(C)CC(C)C2)c1C (stereo not given) | inactive: -6.89%
52 | CC(=O)c1ccc(CCCCCCCCCC(=O)O)s1 | inactive: -12.1%
53 | COc1cc2c(cc1OC)/C(=C/c1ccc(Cl)cc1)C(=O)OC2 | inactive: 27.4%
54 | C=C(C)Cn1c(NCCOC)nc2c1c(=O)[nH]c(=O)n2C | inactive: -5.11%
55 | O=C(CCCCCCCC(=O)c1ccccc1)c1ccccc1 | inactive: -5.61%
56 | Cc1cc(=O)[nH]c(=S)[nH]1 | inactive: 1.21%
57 | Cc1ccc(Nc2ncccc2C(=O)O)cc1C | inactive: -1.57%
58 | COc1ccccc1C(=O)Oc1ccc2c(c1)O/C(=C\c1ccncc1)C2=O | active: 45.6%
59 | CN(C)CCOC(C)(c1ccccc1)c1ccccn1 (stereo not given) | inactive: -12.1%
60 | CN(C(=O)C(Cl)Cl)c1ccc(OC(=O)c2ccco2)cc1 | inactive: -2.19%
61 | Cc1oc2c(CN3CCCC3)c(O)ccc2c(=O)c1-c1ccc(Cl)cc1 | inactive: -6.73%
62 | COC(=O)c1cc(OC)c(OC)cc1NC(=O)CN1C(=O)c2ccccc2C1=O | inactive: -6.28%
63 | Cc1ccc(S(=O)(=O)NC(C(=O)Oc2ccc3c(C(F)(F)F)cc(=O)oc3c2)c2ccccc2)cc1 (stereo not given) | inactive: -15.3%
64 | CNC[C@H](O)c1ccc(O)c(O)c1 | inactive: -31.2%
65 | C[N+]1(C2CCC3CCCC2C3O)CCCCC1 (stereo not given) | inactive: -12.9%
66 | CC(C)[N+]1(C)[C@@H]2CC[C@H]1CC(OC(=O)C(CO)c1ccccc1)C2 (stereo not given in full) | inactive: -5.55%
67 | CC(C)CC(NC(=O)C1CCCN1C(=O)OC(C)(C)C)C(=O)NCC(N)=O (stereo not drawn) (Boc-Pro-Leu-Gly-NH2; configuration not given here) | inactive: -12.5%
68 | Cc1ncc(C(=O)O)c(C(=O)O)c1N | inactive: -8.83%
69 | CN1CCN(CCCN2c3ccccc3Sc3ccc(C(F)(F)F)cc32)CC1 | inactive: -7.64%
70 | COc1ccc(NC(=O)C2C(=O)N(CCO)C3(C)CC2c2ccccc2O3)cc1 (stereo not given) | inactive: -10.9%
71 | Cc1ccc(S(=O)(=O)n2ccnc2)cc1C | inactive: -7.27%
72 | Cc1csc(-c2coc3cc(O)cc(C)c3c2=O)n1 | inactive: 12.8%
73 | NC(N)=NC(N)=NCCc1ccccc1 | inactive: -12.7%
74 | CC(NC(=O)c1cccnc1)C(=O)O (stereo not given) | inactive: -12.5%
75 | CC(C)OC(=O)CC1C(=O)NCCN1C(=S)NC(=O)c1cccs1 (stereo not given) | inactive: -13.4%

Row | SMILES | inhibition
76 | COc1ccc(OCc2cccc(C(=O)NN)c2)cc1 | inactive: -3.21%
77 | C/C(=N\NC(=O)c1ccccc1[N+](=O)[O-])c1ccc(Br)s1 | inactive: 0.76%
78 | O=C(COc1ccc2ccc(=O)oc2c1)c1ccccc1 | inactive: -2.99%
79 | O[C@H]1COC2C1OC[C@@H]2O (stereo not given in full) | inactive: -6.39%
80 | CCc1cccc2c1NC1(CCCC1)CC2C (stereo not given) | inactive: -8.25%
81 | Nc1nc2ccc(OC(F)(F)F)cc2s1 | inactive: -1.63%
82 | CC(C)CN1CCN(Cc2ccc(C#CC(C)(C)O)cc2)CC1CCO (stereo not given) | inactive: -1.18%
83 | COc1ccc2c(c1)c(CC(=O)O)c(C)n2C(=O)c1ccc(Cl)cc1 | inactive: -7.19%
84 | O=c1c(-c2ccc3c(c2)OCCO3)coc2cc(OC3OC(CO)C(O)C(O)C3O)ccc12 (stereo not given) | inactive: -4.41%
85 | Cc1cccc(N2CCN(C(=S)c3ccccc3)CC2)c1 | inactive: -5.97%
86 | O=c1ccc2c(o1)/C(=C/C=C(Cl)Cl)CCC2 | inactive: 5.65%
87 | Cc1ccc(OCCCCn2ccnc2C)c(C)c1 | inactive: -5.04%
88 | CCOC(=O)C1C(=O)OC2(CCOC(C)(C)C2)C1C(=O)OCC (stereo not given) | inactive: -2.67%
89 | CC(=O)NC1C(OCCOc2ccc(Cl)cc2Cl)OC(COC(C)=O)C(OC(C)=O)C1OC(C)=O (stereo not given) | inactive: -6.38%
90 | Cn1c(=O)c2c(ncn2Cc2ccccc2)n(C)c1=O | inactive: -11.2%
91 | CCOC(=O)C(NC(=O)CCC(=O)Nc1ccc(S(N)(=O)=O)cc1)C(O)c1ccccc1 (stereo not given) | inactive: -1.09%
92 | C=CCc1cc(Cl)ccc1OCCOCCN(C)C | inactive: -8.98%
93 | C(=C\c1ccccc1)/CN1CCN(C(c2ccccc2)c2ccccc2)CC1 | inactive: 0.6%
94 | CC1(C)CC(=O)c2c(nc3ccccc3c2N)C1 | inactive: -6.88%
95 | CC(C)C(=O)Nc1c(O)c2ccccc2[nH]c1=O | inactive: -16.2%
96 | O=C(Nc1c(C(=O)O)[nH]c2ccccc12)NC1CCCCC1 | inactive: -3.63%
97 | CC(C)[C@H]1CN(C)CCN1Cc1cn(C)nc1-c1cccc(Cl)c1 | inactive: -8.42%
98 | CC1CCN(CCOCCOc2ccccc2Br)CC1 | inactive: -4.5%
99 | CCC(CO)NCCNC(CC)CO (stereo not given) | inactive: -7.31%
100 | c1cnc(N2CCN(Cc3ccc4c(c3)OCO4)CC2)nc1 | inactive: -2.71%
